The source of these data is paper PMC9279342.

Chains of the proteins cited; added tags and fusions are not shown. Residues count along the entry.
UniProt P11021, residues 19-654: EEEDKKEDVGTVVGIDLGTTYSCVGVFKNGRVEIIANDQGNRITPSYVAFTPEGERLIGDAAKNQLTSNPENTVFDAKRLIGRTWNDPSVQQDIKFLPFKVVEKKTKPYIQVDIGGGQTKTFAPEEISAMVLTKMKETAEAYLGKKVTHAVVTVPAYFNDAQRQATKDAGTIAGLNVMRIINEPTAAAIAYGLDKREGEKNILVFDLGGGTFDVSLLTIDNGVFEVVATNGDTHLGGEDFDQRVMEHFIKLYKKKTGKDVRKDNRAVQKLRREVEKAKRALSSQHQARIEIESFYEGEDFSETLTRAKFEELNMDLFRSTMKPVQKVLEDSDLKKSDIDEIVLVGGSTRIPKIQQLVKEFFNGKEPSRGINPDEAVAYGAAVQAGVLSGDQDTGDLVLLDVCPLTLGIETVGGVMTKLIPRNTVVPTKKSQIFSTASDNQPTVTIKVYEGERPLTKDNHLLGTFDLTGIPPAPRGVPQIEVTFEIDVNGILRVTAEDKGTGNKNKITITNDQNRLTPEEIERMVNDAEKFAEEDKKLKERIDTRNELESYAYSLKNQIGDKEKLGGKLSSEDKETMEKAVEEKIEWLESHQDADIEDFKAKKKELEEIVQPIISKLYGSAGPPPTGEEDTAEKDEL

No constants are given. Whether binding was seen depends on the method and setting. In cells and extracts the contact can be indirect. Some results given as binding are weak or reduced against the parent protein; the word gives no strength. Sequences can lack the tags named with a protein.

This test has as its target T1, GST-Hevin mW633R (mouse Hevin W633R, GST inserted after the signal peptide) (mouse) (UniProt P70663).
T1 sequence: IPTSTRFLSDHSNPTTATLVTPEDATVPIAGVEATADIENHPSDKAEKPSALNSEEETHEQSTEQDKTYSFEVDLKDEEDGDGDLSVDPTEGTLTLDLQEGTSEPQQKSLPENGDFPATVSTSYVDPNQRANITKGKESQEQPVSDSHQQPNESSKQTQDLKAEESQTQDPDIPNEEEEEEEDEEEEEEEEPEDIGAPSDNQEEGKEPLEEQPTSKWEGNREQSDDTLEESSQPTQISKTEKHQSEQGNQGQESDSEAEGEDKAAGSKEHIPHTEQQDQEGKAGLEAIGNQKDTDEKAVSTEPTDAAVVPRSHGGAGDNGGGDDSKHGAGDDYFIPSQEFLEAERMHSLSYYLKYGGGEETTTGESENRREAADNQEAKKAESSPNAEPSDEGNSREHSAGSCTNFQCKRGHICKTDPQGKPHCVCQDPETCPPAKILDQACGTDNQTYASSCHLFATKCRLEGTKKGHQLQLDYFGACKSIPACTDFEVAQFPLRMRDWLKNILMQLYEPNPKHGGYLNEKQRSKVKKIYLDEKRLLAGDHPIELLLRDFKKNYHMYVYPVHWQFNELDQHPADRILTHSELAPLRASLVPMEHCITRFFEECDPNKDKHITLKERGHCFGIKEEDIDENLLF
As to the kind of experiment: pull-down; GST-Hevin expressed in HEK293T cells (48 h) was precipitated from the lysate with Glutathione Sepharose beads, 2 h at 4 °C; lysis buffer 20 mM Tris-HCl pH 7.5, 150 mM NaCl, 0.5% NP-40, 1 mM DTT, in the presence or absence of 1 mM EDTA; endogenous BIP detected by immunoblot. (In general: Immunoblotting shows a protein as a band on a membrane.)

For the substance “BIP (ER chaperone protein) (from UniProt P11021 19-654)”, the binding result is recorded as “binds”.
